Results deposited as PubChem BioAssay AID1224830 (NIAID, 2016)

Test: 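Regulators of TLR4 signalling towards TNF-alpha in macrophage-like cells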 (primary screen)
Cells: human THP-1 monocytic leukaemia cells, TNF dual-luciferase reporter clone, PMA-differentiated to macrophage-like cells
Reagent: siRNA pool against human genes, 50 nM
Time to read-out: LPS for 4 h, given about 3 days after siRNA transfection
Challenge: bacterial LPS (TLR4 ligand), 10 ng/ml
Read-out: 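TNF firefly reporter luminescence divided by renilla, normalised to the plate median, then turned into a robust z-score for each replicate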
Direction: TNF reporter robust z-score: higher = stronger TNF reporter response to LPS
Hit rule: 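Each well counts as active if its z-score is over 2.8 or under -1.5; controls are left without a call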
The deposit covers about 18,000 reagents; below is a random part of them. About 2,900 of them (16%) count as active. 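Calls are made per well; low scores hint the gene aids the LPS response, high scores that it dampens it.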 Repeated entries: four replicate wells of each siRNA pool.

gene symbol | TNF reporter robust z-score | call
LINC02903 | 0.58 | inactive
LINC02903 | 0 | inactive
LINC02903 | 0.55 | inactive
LINC02903 | -0.76 | inactive
GJC2 | -0.53 | inactive
GJC2 | -0.76 | inactive
GJC2 | -1.43 | inactive
GJC2 | -1.48 | inactive
IDO1 | 1.09 | inactive
IDO1 | -0.02 | inactive
IDO1 | -0.85 | inactive
IDO1 | 0.02 | inactive
LARP1 | 0.32 | inactive
LARP1 | -0.45 | inactive
LARP1 | -0.31 | inactive
LARP1 | -0.5 | inactive
C1orf146 | -1.04 | inactive
C1orf146 | -1.12 | inactive
C1orf146 | -0.8 | inactive
C1orf146 | -0.87 | inactive
GRK6 | -0.29 | inactive
GRK6 | 0.04 | inactive
GRK6 | -0.37 | inactive
GRK6 | -0.8 | inactive
LMF1 | -0.61 | inactive
LMF1 | -0.48 | inactive
LMF1 | -0.89 | inactive
LMF1 | -0.13 | inactive
ARMC3 | 1.27 | inactive
ARMC3 | 0.92 | inactive
ARMC3 | 0.62 | inactive
ARMC3 | 0.97 | inactive
DCAF4L2 | 0.08 | inactive
DCAF4L2 | -0.51 | inactive
DCAF4L2 | -1.51 | active
DCAF4L2 | -1.31 | inactive
MTFP1 | -0.14 | inactive
MTFP1 | 0.52 | inactive
MTFP1 | 0.85 | inactive
MTFP1 | 1.13 | inactive
RABGAP1 | 0.08 | inactive
RABGAP1 | -0.33 | inactive
RABGAP1 | 0.72 | inactive
RABGAP1 | 0.57 | inactive
IFNA2 | -0.74 | inactive
IFNA2 | 0.2 | inactive
IFNA2 | -0.98 | inactive
IFNA2 | -0.16 | inactive
SUB1 | -0.37 | inactive
SUB1 | 0.12 | inactive
SUB1 | -0.25 | inactive
SUB1 | 0.6 | inactive
FAM124B | 0.45 | inactive
FAM124B | 0.02 | inactive
FAM124B | -0.69 | inactive
FAM124B | 0.17 | inactive
CA14 | -0.2 | inactive
CA14 | 0.25 | inactive
CA14 | 0.29 | inactive
CA14 | 1.17 | inactive
OVOL2 | -1.16 | inactive
OVOL2 | 0.18 | inactive
OVOL2 | -0.05 | inactive
OVOL2 | -0.85 | inactive
TMPO | 0.05 | inactive
TMPO | 1.25 | inactive
TMPO | -0.02 | inactive
TMPO | 0.79 | inactive
RNPEPL1 | -0.38 | inactive
RNPEPL1 | 2.1 | inactive
RNPEPL1 | 3.17 | active
RNPEPL1 | 0.64 | inactive
TMED10 | -1.82 | active
TMED10 | -1.76 | active
TMED10 | -1.73 | active
TMED10 | -1.88 | active
FREY1 | -0.83 | inactive
FREY1 | -1.47 | inactive
FREY1 | -1.39 | inactive
FREY1 | -0.82 | inactive
OR2T27 | 2.39 | inactive
OR2T27 | 0.33 | inactive
OR2T27 | 1.98 | inactive
OR2T27 | 1.91 | inactive
LTB | -0.84 | inactive
LTB | -0.9 | inactive
LTB | -0.99 | inactive
LTB | -0.67 | inactive
PAGE2 | 1.06 | inactive
PAGE2 | 1.07 | inactive
PAGE2 | 0.91 | inactive
PAGE2 | -0.89 | inactive
IFNA21 | 0.14 | inactive
IFNA21 | -0.07 | inactive
IFNA21 | -0.95 | inactive
IFNA21 | 0.03 | inactive
ALOX5 | -0.89 | inactive
ALOX5 | -0.29 | inactive
ALOX5 | -0.78 | inactive
ALOX5 | -0.1 | inactive
MKX | 2.6 | inactive
MKX | 3.99 | active
MKX | 2.77 | inactive
MKX | 4.36 | active
OSER1 | 1.05 | inactive
OSER1 | 0.65 | inactive
OSER1 | 0.16 | inactive
OSER1 | 1.11 | inactive
IFIT1B | -0.36 | inactive
IFIT1B | -0.73 | inactive
IFIT1B | -0.28 | inactive
IFIT1B | -0.82 | inactive

5 of these entries, reformatted.
gene symbol	TNF reporter robust z-score	call
DCAF4L2	-1.31	inactive
MTFP1	-0.14	inactive
MTFP1	0.52	inactive
MTFP1	0.85	inactive
MTFP1	1.13	inactive
